# Patent publication US8765777B2, “Compositions and methods of use for tyrosine kinase inhibitors to treat pathogenic infection” (priority 2008, dated 2014)
# Legend:
# [1] = system: VV extracellular enveloped virus (EEV); type: cell-based, Vaccinia virus; conditions: 10 μM
# Polyoma virus = test: Cytopathic effects of Polyoma virus on 3T3 cells; type: cell-based; conditions: 10 μM, 3T3 monolayers infected for 5 days
smiles,measurement,setting,value
"Cc1ccc(NC(=O)c2ccc(CN3CCN(C)CC3)cc2)cc1Nc1nccc(-c2cccnc2)n1 [STI-571, 4-[(4-Methyl-1-piperazinyl)methyl]-N-[4-methyl-3-[[4-(3-pyridinyl)-2-pyrimidinyl]amino]-phenyl]benzamide methanesulfonate]",VV load in mice,"VV; 100 mg/kg/day, continuous release osmotic pumps, FIG. 4",reduces VV load
same,viral load lower than in untreated mice,"VV; real-time PCR, Experiment 6",6 orders of magnitude
same,fold reduction in plaque number in the presence or absence of mAb 2D5,[1],same fold reduction
same,extent of cell killing by Polyoma virus,Polyoma virus,reduced the extent of killing
